These results are taken from article doi:10.1101/2020.09.21.306522.

By UniProt entry, the sequences of proteins in these tests, tags left out. Where a name states a change or a piece, a line headed by the entry shows the natural chain unless it says otherwise.
UniProt O94851: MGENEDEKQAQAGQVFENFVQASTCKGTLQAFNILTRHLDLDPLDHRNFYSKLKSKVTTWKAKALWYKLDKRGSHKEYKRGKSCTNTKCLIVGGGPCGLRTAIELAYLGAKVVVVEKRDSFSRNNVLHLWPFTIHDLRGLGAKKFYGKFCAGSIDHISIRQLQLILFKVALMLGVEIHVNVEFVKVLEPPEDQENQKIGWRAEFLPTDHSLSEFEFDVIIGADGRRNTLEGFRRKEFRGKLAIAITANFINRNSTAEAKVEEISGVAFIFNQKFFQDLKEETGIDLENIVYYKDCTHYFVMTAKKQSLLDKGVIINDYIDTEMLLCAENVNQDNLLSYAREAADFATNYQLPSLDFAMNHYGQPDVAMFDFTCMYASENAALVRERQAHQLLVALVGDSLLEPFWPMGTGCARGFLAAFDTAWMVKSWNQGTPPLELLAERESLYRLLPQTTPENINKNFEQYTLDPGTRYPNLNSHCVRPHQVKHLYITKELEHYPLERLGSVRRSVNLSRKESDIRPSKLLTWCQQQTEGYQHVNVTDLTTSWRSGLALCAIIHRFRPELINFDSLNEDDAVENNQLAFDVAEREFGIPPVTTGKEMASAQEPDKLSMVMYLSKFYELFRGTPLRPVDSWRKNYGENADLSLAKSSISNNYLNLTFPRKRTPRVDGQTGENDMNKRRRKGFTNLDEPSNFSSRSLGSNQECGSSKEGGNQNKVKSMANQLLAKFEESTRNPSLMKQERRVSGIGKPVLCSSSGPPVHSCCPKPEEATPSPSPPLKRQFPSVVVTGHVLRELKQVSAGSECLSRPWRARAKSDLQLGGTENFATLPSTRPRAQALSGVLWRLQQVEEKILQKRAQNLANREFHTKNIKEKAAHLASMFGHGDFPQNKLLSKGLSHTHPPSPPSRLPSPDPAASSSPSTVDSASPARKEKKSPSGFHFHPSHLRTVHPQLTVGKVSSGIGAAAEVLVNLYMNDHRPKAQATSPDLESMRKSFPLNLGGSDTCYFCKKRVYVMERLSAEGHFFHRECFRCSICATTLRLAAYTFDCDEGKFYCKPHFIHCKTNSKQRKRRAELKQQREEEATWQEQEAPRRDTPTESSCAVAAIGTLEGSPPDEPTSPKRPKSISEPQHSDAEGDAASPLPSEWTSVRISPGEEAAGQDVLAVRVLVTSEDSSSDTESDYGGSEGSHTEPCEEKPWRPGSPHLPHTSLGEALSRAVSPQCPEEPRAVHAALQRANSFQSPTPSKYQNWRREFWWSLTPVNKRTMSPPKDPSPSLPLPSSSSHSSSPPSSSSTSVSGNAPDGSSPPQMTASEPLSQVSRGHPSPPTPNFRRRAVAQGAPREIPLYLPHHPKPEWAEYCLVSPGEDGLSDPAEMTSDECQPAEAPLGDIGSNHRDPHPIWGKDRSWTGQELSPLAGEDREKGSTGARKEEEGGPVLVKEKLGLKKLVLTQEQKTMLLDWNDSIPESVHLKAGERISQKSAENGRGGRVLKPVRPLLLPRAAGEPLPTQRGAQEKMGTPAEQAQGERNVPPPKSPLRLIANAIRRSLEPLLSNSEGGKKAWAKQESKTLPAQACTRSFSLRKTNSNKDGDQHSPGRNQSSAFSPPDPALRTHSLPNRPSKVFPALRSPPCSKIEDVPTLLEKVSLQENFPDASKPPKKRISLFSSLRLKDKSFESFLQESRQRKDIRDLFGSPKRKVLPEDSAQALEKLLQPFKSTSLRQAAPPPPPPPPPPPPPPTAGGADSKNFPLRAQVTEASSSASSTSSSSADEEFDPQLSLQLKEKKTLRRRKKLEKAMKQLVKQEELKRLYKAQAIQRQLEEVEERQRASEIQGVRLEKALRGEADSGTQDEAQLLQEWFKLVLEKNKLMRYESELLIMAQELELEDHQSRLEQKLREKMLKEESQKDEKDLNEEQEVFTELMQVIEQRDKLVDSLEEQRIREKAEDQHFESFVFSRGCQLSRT
UniProt Q9ULV4: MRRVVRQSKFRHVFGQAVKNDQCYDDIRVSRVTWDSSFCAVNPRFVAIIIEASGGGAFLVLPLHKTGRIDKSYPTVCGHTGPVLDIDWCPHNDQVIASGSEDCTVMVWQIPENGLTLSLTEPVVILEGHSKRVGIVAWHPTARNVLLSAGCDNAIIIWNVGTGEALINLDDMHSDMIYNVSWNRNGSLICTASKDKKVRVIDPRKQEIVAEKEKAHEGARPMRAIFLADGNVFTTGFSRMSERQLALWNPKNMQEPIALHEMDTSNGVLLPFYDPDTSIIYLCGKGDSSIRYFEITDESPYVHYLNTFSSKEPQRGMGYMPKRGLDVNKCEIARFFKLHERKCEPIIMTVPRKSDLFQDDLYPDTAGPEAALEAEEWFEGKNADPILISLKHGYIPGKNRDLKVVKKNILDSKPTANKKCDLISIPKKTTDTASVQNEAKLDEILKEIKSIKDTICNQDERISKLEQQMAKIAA

No constants are given. Whether binding was seen depends on the method and setting. In cells and extracts the contact can be indirect. Binding can be weak; no strength is given.

In this test the target is GFP-tagged MICAL2 (human) (UniProt O94851). The test can be described thus: co-IP.

For coronin-1C (from UniProt Q9ULV4 1-474), the binding result was “binds”.
